# Results: the supplement of paper PMC3334620
# The full ranking holds about 33,000 sequences; the median of “E-score (-0.5 to 0.5)” is about -0.0014, and the highest 2% start at about 0.25. This is one part of the list.
# Molecular target: T1, Cad1 (UniProt P24813)
# T1 sequence: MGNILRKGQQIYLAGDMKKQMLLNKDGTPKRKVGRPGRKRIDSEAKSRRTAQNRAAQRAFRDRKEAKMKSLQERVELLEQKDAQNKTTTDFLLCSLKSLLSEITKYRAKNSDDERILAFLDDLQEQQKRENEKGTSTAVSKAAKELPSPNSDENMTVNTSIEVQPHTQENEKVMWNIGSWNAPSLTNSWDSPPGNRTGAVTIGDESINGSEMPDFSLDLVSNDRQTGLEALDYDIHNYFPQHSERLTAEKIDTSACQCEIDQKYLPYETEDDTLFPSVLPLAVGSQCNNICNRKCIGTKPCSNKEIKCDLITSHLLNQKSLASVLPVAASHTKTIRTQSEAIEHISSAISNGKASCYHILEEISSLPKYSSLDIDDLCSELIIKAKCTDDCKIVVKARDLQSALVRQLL
# Test: PBM E-score (8-mer binding enrichment) (E-score (-0.5 to 0.5)); higher = stronger / more preferred TF binding
# Conditions: protein concentration: 100 nM; construct: GST-full length
# Outline: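 Yeast transcription factors carrying a GST tag, as full-length proteins or DNA-binding domains, were produced by PURExpress in vitro transcription/translation. About 100-200 nM protein was applied to universal all-10-mer Agilent arrays, double-stranded by primer extension on fresh or once-stripped slides. Bound protein was detected with fluorescent anti-GST, and scans were normalised with masliner. The Universal PBM Analysis Suite gave each ungapped eight-base word, pooled with its reverse complement, an E-score, a modified Wilcoxon-Mann-Whitney statistic.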
row,Sequence,PBM E-score
1,CGGGGTAG,-0.209
2,CAGTGCCG,0.00284
3,GCAGATTA,0.048
4,ATAACTGG,-0.00558
5,GAAGGAGA,-0.139
6,AAATCCAA,0.115
7,CAGAGAGA,-0.164
8,GGAGAACA,0.0538
9,CAAACCTG,0.0184
10,CTAGCAAG,-0.0274
11,ACAATCCG,0.115
12,GGTAAAAC,0.113
13,CACGTATC,0.0223
14,CAGGGTCA,-0.343
15,ATGGAGGA,-0.139
16,AGGGCGCA,-0.0246
17,CTGAGCGA,0.026
18,GAGGCCTA,0.0905
19,AGAGGAAA,0.106
20,CTGTAGAA,-0.134
21,AACTCCGA,0.0113
22,ACTAACAG,0.193
23,CCAATTAA,0.018
24,AAAAACGG,0.229

row,Sequence,PBM E-score
1,AGTGTTAA,0.255
2,GAGTCAGA,0.0308
3,CCGTTATA,0.11
4,ACACAGAG,0.0296
5,ACTGAGCC,-0.0187
6,AGGACAAT,0.192
7,ATGCATTA,0.265
8,GATAGCAA,0.0942
9,ACAGCCCG,-0.138
10,AAAACAGT,0.162
11,ATAGTCTC,0.042
12,AGTACGGA,-0.0405
13,ACTCAGAC,0.051
14,AAAGCTTT,0.235
15,AGTCTGAA,0.134
16,ACGCCTTG,-0.0703
17,AAAAGGCC,-0.139
18,AGAGAGAA,-0.0532
19,CTGATGGA,-0.0544
20,AATCTCTG,0.0651
21,CAATAAAA,0.0637
22,CCGGCTGC,-0.00441
23,ATCGAACG,-0.0756
24,AAATATGA,0.234

row,Sequence,PBM E-score
1,ATGACGCC,-0.27
2,ACCTACCT,-0.111
3,GGTGTCGA,0.104
4,CTGAGGAC,-0.0151
5,ACATCTGC,-0.0657
6,ACTACGTC,0.0184
7,GATCGTCC,0.0342
8,GAATGGGA,-0.139
9,ATATCTTC,0.134
10,CTTGCCCC,-0.262
11,TTGTTAAA,-0.197
12,CATAATCC,-0.0234
13,AGAACAGG,-0.167
14,GCGCAGTA,0.149
15,AAGCACCC,-0.185
16,CACGGTTC,-0.0957
17,CCGAATTA,-0.0568
18,GAGTGTAA,-0.18
19,AGGGAACC,-0.0448
20,CGATCCTA,-0.0226
21,GAGCTCGC,0.128
22,ACAACGCG,0.181
23,AAGGCGGC,-0.0607
24,AGGGCAAT,-0.0502

# Exported tab-delimited: part of the list above
row	Sequence	PBM E-score
9	ATATCTTC	0.134
10	CTTGCCCC	-0.262
11	TTGTTAAA	-0.197
12	CATAATCC	-0.0234

# Next records:

row,Sequence,PBM E-score
1,AAGGAAAA,0.0961
2,CCAGTATC,-0.0989
3,CTATGCGA,-0.0106
4,CCTTGAGA,0.118
5,ACATAGTA,0.0314
6,AACTTAAT,0.231
7,AACATATG,0.0974
8,CCAATCAA,0.0672
9,AGGGTAAA,0.0843
10,CCCGTGCG,0.0189
11,GGCTAGCA,-0.135
12,ACCAGATC,-0.0746
13,CATGACCA,0.0406
14,ATAATCAT,0.252
15,AGACGCGG,0.0502
16,GGGAATGA,0.0568
17,GAGGTGCC,-0.035
18,GCCACTTA,0.0292
19,ATCTATTG,-0.125
20,TACGACTA,-0.0114
21,CAGCATAC,-0.0347
22,CCCCACTA,-0.235
